Where “and” joins values, the source holds several entries; their conditions need not be identical. Identical values can stand only once. The list shows a part of the results. Shown are side measurements of this screen, not its main read-out; they come without a call. The list favours compounds with an active or inconclusive main result. The note in brackets gives the kind of curve behind each potency; many fits are weak.
Test: qHTS Assay to Find Inhibitors of Chronic Active B-Cell Receptor Signaling
Conditions: ABC-DLBCL IkBa-CBG/CBR reporter, luminescence ratio (green luciferase fused to IkBa over red control in TMD8 lymphoma cells), 4 h
Outline: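 Cell line TMD8 (human ABC DLBCL), stably expressing tet-inducible CBG68-IkBa fusion and CBR; IMDM/0.5% FBS; cpd up to 46 uM; dox induction, 4 h, 37C/5% CO2; dual luminescence; green/red ratio; MG132 control.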

[1] = measured here: CBR red luminescence, cell number
[2] = measured here: IkBa-CBG green luminescence

SMILES	AC50 [1]	AC50 [2]
COCCNC(=O)c1onc(CSc2cccc(C)c2)c1C(=O)O	14.1 µM [falling, single point]	
CCN(CC)C(=O)CN1C(=O)C2(OCC(C)(c3ccccc3)CO2)c2ccccc21 (configuration not stated)	35.5 µM [rising, partial curve, poor fit]	
COc1ccc2c(c1)c(CC(=O)Nc1cccc(S(N)(=O)=O)c1)c(C)n2C(=O)c1ccc(Cl)cc1	11.2 µM [falling, partial curve, poor fit]	
Cc1cc(C)c(S(=O)(=O)ON2C(=O)c3ccccc3C2=O)cc1C	12.6 µM [rising, partial curve, poor fit]	
CN(C)c1nc(OCCNC(=O)COc2ccc(Cl)cc2Cl)nc(N2CCOCC2)n1	5.8 µM [rising, single point]	
O=C(NCc1ccco1)c1cc2n(n1)C(C(F)(F)F)CC(c1ccc(Br)cc1)N2 (configuration not stated)	22.4 µM [rising, single point]	
Cc1c(/C=C2\SC(=Nc3cccc(C(=O)O)c3)NC2=O)c2ccccc2n1C	17.8 µM [falling, single point]	
COc1ccc(-n2cnc3cc(N)ccc32)cc1	29.1 µM [rising, single point]	
CN(CC(=O)Nc1ccc(OC(F)(F)F)cc1)C(=O)Cn1c(=O)cnc2ccccc21	0.82 µM [falling, full curve, poor fit]	
COc1cccc(CNc2ncc(C(=O)Nc3cc(OC)c(OC)c(OC)c3)c(C)n2)c1	2 µM [falling, partial curve, poor fit]	
Cc1ccc(-n2nc(-c3ccc(OC(F)(F)F)cc3)cc2N)cc1C	5.62 µM [rising, full curve]	
Cc1ccc(NN=Nc2nc3c([nH]2)c(=O)n(C)c(=O)n3C)cc1		25.9 µM [rising, partial curve, poor fit]
Oc1c(Br)cc(C2N=C(c3ccccc3)NO2)cc1Br (configuration not stated)	0.891 µM [rising, full curve, poor fit]	
Cn1c(NC(=S)Nc2ccccc2)nc2ccccc21	7.31 µM [falling, partial curve]	
Cc1cc(=O)oc2c3c(cc(OCC(=O)NCc4ccncc4)c12)OC(C)(C)CC3	4.47 µM [rising, full curve, poor fit]	
COc1ccc(/C=C(\NC(=O)c2ccccc2)C(=O)NCc2cccnc2)cc1	35.5 µM [falling, single point]	
CC(=O)c1cccc(-c2csc(N3CCC(C(N)=O)CC3)n2)c1	29.1 µM [rising, single point] and 7.31 µM [rising, partial curve]	
c1cncc(Nc2c3ccccc3nc3ccccc23)c1	14.1 µM [falling, single point]	
Cc1cccc(Nc2nc(-c3ccc(O)c(O)c3)cs2)n1	17.8 µM [falling, partial curve]	
CCOC(=O)CSC1=C(C#N)C(c2ccc(OC)cc2)C2=C(CC(C)(C)CC2=O)N1 (configuration not stated)	35.5 µM [falling, single point]	
CCOc1ccc(/C(O)=C2/C(=O)C(=O)N(c3ccccn3)C2c2ccc(Cl)cc2)c(C)c1 (configuration not stated)	35.5 µM [falling, single point]	

SMILES	AC50 [1]	AC50 [2]
CCC(=O)NC(=S)Nc1cccc(NC(=O)c2ccccc2)c1	35.5 µM [falling, single point]	
COc1ccc(NC(=O)[C@@H](NS(=O)(=O)c2cccc(Cl)c2)C(C)C)cc1S(=O)(=O)N1CCOCC1	0.326 µM [rising, full curve, poor fit]	
CC(=O)Oc1cccc2c1C(=O)c1c(OC(C)=O)cc(C(=O)O)cc1C2=O	2.59 µM [falling, partial curve]	
O=C1CCCc2nn(-c3ccccc3)nc21	32.6 µM [rising, partial curve, poor fit]	
C=CCN(c1ccccc1)S(=O)(=O)c1cccc(C(=O)Nc2nc3ccccc3[nH]2)c1	5.8 µM [falling, partial curve]	5.17 µM [rising, partial curve, poor fit]
CSc1nnc(-c2cc(-c3ccc(C)cc3)nc3ccccc23)o1	10.3 µM [rising, partial curve, poor fit]	
CCOC(=O)c1[nH]c2c(c1C)C(=O)CC(c1ccco1)C2 (configuration not stated)	0.731 µM [rising, full curve]	0.517 µM [falling, full curve, poor fit]
Cc1ccc2nc(C(F)(F)F)c(C#N)c(N)c2c1	32.6 µM [falling, single point]	
COc1ccc(S(=O)(=O)Nc2c(C(=O)O)[nH]c3ccc(OC)cc23)c(OC)c1	11.2 µM [falling, single point]	
COc1ccccc1S(=O)(=O)Nc1cccc(-c2nnc3n2CCCCC3)c1	0.0891 µM [rising, full curve, poor fit]	
Cc1cccc(NC(=O)C2(c3ccc([N+](=O)[O-])cc3)CCCC2)c1		17.8 µM [rising, partial curve, poor fit]
COc1cc2c(cc1NS(=O)(=O)N1CCCCC1)oc1ccccc12	16.4 µM [falling, single point]	
COc1ccccc1-c1nnc2n1N=C(c1ccc(O)c(O)c1)CS2	35.5 µM [falling, single point]	0.794 µM [falling, full curve]
Cc1nnc(Nc2ccc(C(=O)N3CCOCC3)cc2)c2ccccc12	25.9 µM [falling, single point]	
O=c1c2ccccc2nc(/C=C/c2cccnc2)n1Cc1ccccc1	25.1 µM [falling, single point]	
O=C(Cc1ccccc1)NN1C(=O)/C(=C/c2ccc(C(=O)O)cc2)SC1=S	11.2 µM [falling, partial curve, poor fit]	
COc1ccc(C(=O)CNc2ccccc2Br)cc1	11.2 µM [falling, single point]	
Cc1ccc(NC(=S)N/N=C/c2c(Cl)cccc2Cl)c(C)c1	16.4 µM [rising, partial curve]	18.4 µM [falling, partial curve]
Cc1cccc(C(=O)NC(=S)NNC(=O)COc2ccc(Cl)cc2)c1	3.55 µM [rising, full curve, poor fit]	
COc1ccccc1NC(=S)NNC(=O)c1ccc(O)cc1	23.1 µM [falling, partial curve, poor fit]	
COc1ccc(NC(=O)c2cc3ccccc3[nH]2)cc1	10 µM [falling, partial curve]	

SMILES	AC50 [1]	AC50 [2]
CN(C)C(=O)c1c(NC(=O)c2ccccc2)sc2c1CCC2	11.2 µM [falling, partial curve, poor fit]	
COc1ccc(N(CC(O)CN2CCCCC2)S(=O)(=O)c2ccc(C)cc2)cc1 (configuration not stated)	29.1 µM [falling, single point]	32.6 µM [rising, partial curve, poor fit]
Cc1cccc2c1-c1sc(C(=O)NCCCN3CCC(C)CC3)cc1CO2	35.5 µM [falling, single point]	
CCOCCCn1c(SCc2nc3ccccc3s2)nc2ccccc2c1=O	29.1 µM [rising, single point]	
COc1ccccc1C(=O)Nc1nnc(S(=O)(=O)N2CCCCC2)s1	3.55 µM [rising, partial curve, poor fit]	
CCCSc1nc(C)nc2c1c(=O)n(C)c(=O)n2C	29.1 µM [rising, single point]	
O=C(CSc1nnc(-c2ccc(F)cc2)c2ccccc12)Nc1cccc(Cl)c1	5.8 µM [falling, partial curve]	
CC(=O)c1sc(NC(=O)c2ccccc2F)nc1C	18.4 µM [falling, partial curve]	
COC(=O)CCC(=O)OC1(C)C(=O)C2=CN(CCN3CCOCC3)C(c3ccc(OC)cc3)=CC2=C(Br)C1=O (configuration not stated)	5.62 µM [rising, single point]	
COc1ccc(Cl)cc1NC(=O)c1c(NCc2cccnc2)sc2c1CCCC2	3.55 µM [rising, partial curve, poor fit]	
S=C(Nc1ccc(Br)cc1Cl)NC1CCN(Cc2ccccc2)CC1	14.1 µM [falling, single point]	
Cn1cc(C(=O)c2ccc(Cl)cc2Cl)cc1C=O	7.08 µM [falling, partial curve]	
N#C/C(=C(/O)c1ccc2c(c1)OCO2)c1nc2cc(C(F)(F)F)ccc2s1	5.62 µM [falling, partial curve]	
COc1ccccc1OCCn1c(C)c(C=O)c2ccccc21	14.1 µM [falling, single point]	
CCOc1cc(C(=O)N/N=C\c2cn(CC)nc2C)cc(OCC)c1OCC	23.1 µM [rising, partial curve]	20.6 µM [falling, single point]
CCn1c2ccccc2c2nc3cc(C(=O)O)ccc3nc21	1.58 µM [falling, partial curve]	
CCN(CC)CCNC(=O)Cn1cnc2sc(C)c(S(=O)(=O)N3CCN(c4ccccc4OC)CC3)c2c1=O	5.62 µM [falling, single point]	
O=C(C[n+]1ccccc1)N/N=C/c1ccc(C(=O)O)cc1	23.1 µM [rising, partial curve, poor fit]	
O=C(CSc1nc2ccccc2c(=O)n1-c1ccccc1)c1c[nH]c2ccccc12	2.31 µM [rising, partial curve, poor fit]	
